We go through 4 molecules from PMC3152785.

In test [1] the target is T1, Spry1 expressed from the vector pcR3.1 (for co-immunoprecipitation) (mouse) (UniProt Q9QXV9).
T1 sequence: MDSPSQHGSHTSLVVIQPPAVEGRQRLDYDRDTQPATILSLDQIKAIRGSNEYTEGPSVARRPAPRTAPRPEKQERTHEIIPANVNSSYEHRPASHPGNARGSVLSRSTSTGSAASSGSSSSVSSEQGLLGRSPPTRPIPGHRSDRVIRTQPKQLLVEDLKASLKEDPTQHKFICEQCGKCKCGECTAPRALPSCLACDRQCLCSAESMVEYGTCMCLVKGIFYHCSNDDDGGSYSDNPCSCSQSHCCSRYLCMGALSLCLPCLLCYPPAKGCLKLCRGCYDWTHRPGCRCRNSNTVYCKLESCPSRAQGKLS
The test can be described thus: co-IP; HeLa cells co-transfected with Spry1 and Myc-tagged E1A12S, lysed 48 h after transfection in RIPA buffer; 0.5 mg lysate with 1.6 μg anti-Spry1 antibody 1.5 h at 4°C, Protein A/G Plus-agarose overnight; blots with anti-Spry1 and anti-Myc.

Test [2] concerns the target GST-Ad12 E1A9.5S fusion protein (Adenovirus serotype 12 (Ad12)). The test can be described thus: pull-down; 0.5 mg of precleared HeLa cell lysate with Myc-tagged Spry proteins incubated with 40 μg of GST-fusion protein for 1 h at 4°C, Glutathione Sepharose 4B; bound proteins by SDS-PAGE and anti-Myc immunoblot; only the target purified.
Test [3] addresses GST-ΔNE1A12S (Ad12 E1A12S with a deletion of the first 29 N-terminal amino acids) (Adenovirus serotype 12 (Ad12)). Described as above.

Results are given in words; binding and its absence hold for the method and conditions named. Binding seen in cells or lysates may run through a third protein. Binding calls can cover weak binding; strength is not graded here. For some of these results: Tags and fused reporters may be left off the sequences shown.

For the molecule “Myc-tagged Ad12 E1A12S (vector pcDNA3.1/myc-His(-)B) (Adenovirus serotype 12 (Ad12))”, the binding entry in test [1] is recorded as “binds”.

B1: Myc-tagged mouse Sprouty4 (Spry4) (protein, UniProt Q9WTP2 1-300)
chain: MEPPVPQSSVPVNPSSVMVQPLLDSRAPHSRLQHPLTILPIDQMKTSHVENDYIDNPSLAPATGPKRPRGGPPELAPTPARCDQDITHHWISFSGRPSSVSSSSSTSSDQRLLDHMAPPPVAEQASPRAVRLQPKVVHCKPLDLKGPTAPPELDKHFLLCEACGKCKCKECASPRTLPSCWVCNQECLCSAQTLVNYGTCMCLVQGIFYHCTNEDDEGSCADHPCSCSGSNCCARWSFMGALSVVLPCLLCYLPATGCVKLAQRGYDRLRRPGCRCKHTNSVICKAASGDTKTSRSDKPF
Take B1: the binding entry in test [2] and in test [3] was “binds” each time.

B2: Myc-tagged mouse Sprouty1 (Spry1) (protein, UniProt Q9QXV9 1-313)
chain: MDSPSQHGSHTSLVVIQPPAVEGRQRLDYDRDTQPATILSLDQIKAIRGSNEYTEGPSVARRPAPRTAPRPEKQERTHEIIPANVNSSYEHRPASHPGNARGSVLSRSTSTGSAASSGSSSSVSSEQGLLGRSPPTRPIPGHRSDRVIRTQPKQLLVEDLKASLKEDPTQHKFICEQCGKCKCGECTAPRALPSCLACDRQCLCSAESMVEYGTCMCLVKGIFYHCSNDDDGGSYSDNPCSCSQSHCCSRYLCMGALSLCLPCLLCYPPAKGCLKLCRGCYDWTHRPGCRCRNSNTVYCKLESCPSRAQGKLS
Take B2: the binding result is given as “binds” in test [2] and “no binding” in test [3].

B3: Myc-tagged mouse Sprouty2 (Spry2) (protein, UniProt Q9QXV8 1-315)
chain: MEARAQSGNGSQPLLQTAHDSGRQRGEPDPRDALTQQVHVLSLDQIRAIRNTNEYTEGPTVVPRPGLKPAPRPSTQHKHERLHGLPEHRQPPRLQPSQVHSSRAPLSRSISTVSSGSRSSTRTSTSSSSSEQRLLGPSFSHGPAAADGIIRVQPKSELKPGDVKPLSKDDLGLHAYRCEDCGKCKCKECTYPRPLPSDWICDKQCLCSAQNVIDYGTCVCCVKGLFYHCSNDDEDNCADNPCSCSQSHCCTRWSAMGVMSLFLPCLWCYLPAKGCLKLCQGCYDRVNRPGCRCKNSNTVCCKVPTVPPRNFEKPT
As to B3, the binding result in test [2] is “binds weakly”; in test [3], “no binding”.
